# Laboratory results reported in PubChem BioAssay AID540276 (National Center for Advancing Translational Sciences (NCATS), 2011).
# In all, about 300,000 compounds went through this assay and about 5,400 (1.8%) were called active. Inconclusive means that the source gave no clear call. Such entries were picked first, then a sample of the others. Calls follow the shape of the full dose curve; tested in HEK293 cells. Potencies of inconclusive entries are doubtful fits and often do not repeat.
# Assay: qHTS for inhibitors of binding or entry into cells for Marburg Virus
# Settings: Marburg virus pseudotyped entry inhibition, cell reporter; activity change, negative = inhibition: at 37.8 µM (top of the series) unless noted
# % is scaled to controls: 0 for no effect and ±100 for the full control effect; potency is read from the fitted curve at half-maximal effect.
Compound,Potency,"activity change, negative = inhibition"
OCCN(CCO)CC(O)COCCC12CC3CC(CC(C3)C1)C2 (stereo not given),"inconclusive: 12.6 µM [inhibitor, partial curve, poor fit]",–
Cc1ccccc1CSCC(=O)NC(=O)NCc1ccco1,–,inactive: -7.06%
CCc1ccccc1-n1ncc(C(=O)Nc2ccc(OC)cc2)c1C,"inconclusive: 1.78 µM [activator, partial curve, poor fit]",–
CCCCCCCC1=CC2=CC(=O)C(C)(O)C(=O)C2=CN1CCCC (stereo not given),"inconclusive: 0.168 µM [inhibitor, full curve, poor fit]",–
CCN(c1ccccc1)S(=O)(=O)c1ccc(Oc2ccccc2)c(N)c1,"inconclusive: 15.8 µM [inhibitor, partial curve, poor fit]",–
O=C(c1cc2sccc2n1Cc1ccccc1)N1CCc2ccccc21,–,inactive: -6%
COc1cccc(NC(=O)CCC(=O)Nc2cccc(OC)c2)c1,–,inactive: 2.17%
CC1CCCCN1C(=O)COC(=O)C1CCN(S(=O)(=O)c2ccc3c(c2)OCCO3)CC1 (stereo not given),"inconclusive: 1.26 µM [inhibitor, single point]",–
O=C(NC(=S)Nc1cccc(NC(=S)NC(=O)c2ccco2)n1)c1ccco1,–,inactive: 9.48% [at 46.1 µM]
COc1ccc(CN2C(=O)CC(Cc3cc(C)cc(C)c3)C2=O)cc1OC (stereo not given),"inconclusive: 35.5 µM [inhibitor, single point]",–
CC(C)c1nc(CNC(=O)c2ccc(OC3CCN(Cc4ccccn4)CC3)cc2)cs1,"inconclusive: 35.5 µM [inhibitor, single point]",–
O=C(Nc1cccc(Cl)c1)Nc1nccs1,inactive,–
O=C(/C=C\c1ccc(O)cc1)c1ccc(O)cc1O,active: 10 µM,–
Cc1cc(C(C)(C)C)cc(C)c1CCNC(=O)c1c(C)noc1C,"inconclusive: 11.2 µM [inhibitor, partial curve, poor fit]",–
CC1=CC(C)(C)Nc2ccc(OC(=O)CN3C(=O)CCC3=O)cc21,"inconclusive: 25.9 µM [inhibitor, partial curve, poor fit]",–
CCn1cc(C(=O)OCC(=O)Nc2c(C)cccc2C)c(=O)c2ccc(C)nc21,"inconclusive: 5.62 µM [inhibitor, single point]",–
Cc1nnc(SCc2cc(=O)[nH]c(N3CCN(C)CC3)n2)s1,"inconclusive: 35.5 µM [activator, single point]",–
Oc1cccc(/C=C/c2ccc3cccc(O)c3n2)c1,"inconclusive: 35.5 µM [inhibitor, single point]",–
CCOCC(=O)Nc1nnc(C)s1,"inconclusive: 3.66 µM [inhibitor, partial curve, poor fit]",–
CCOc1ccccc1NC(=O)CSC1=Nc2ccccc2C2=NC(CC(=O)NCc3ccc4c(c3)OCO4)C(=O)N12 (stereo not given),"inconclusive: 35.5 µM [inhibitor, single point]",–
COc1ccc(-c2cc3nccc(-c4cc(Cl)c(C)cc4O)n3n2)cc1,–,inactive: -11.9% [at 46.1 µM]
FC(F)(F)c1ccc2c(c1)N1CCCC1CN2 (stereo not given),"inconclusive: 12.6 µM [inhibitor, partial curve, poor fit]",–
N#CC1=C(N)Oc2c(sc3ccccc23)C1c1ccco1 (stereo not given),"inconclusive: 35.5 µM [inhibitor, single point]",–
O=c1nc(N2CCOCC2)nc(N/N=C/c2ccc3c(c2)OCO3)[nH]1,–,inactive: 0.719% [at 46.1 µM]

Compound,Potency,"activity change, negative = inhibition"
Cn1c(SCC(=O)Nc2ccc3c(c2)OCCO3)nnc1-c1ccco1,–,inactive: 3.35%
CCc1ccc(OCC(=O)O/N=C(\N)c2ccccn2)cc1,–,inactive: 2.06%
O=C(NCC1CCCO1)c1ccccc1NS(=O)(=O)c1cc([N+](=O)[O-])ccc1Cl (stereo not given),"inconclusive: 35.5 µM [inhibitor, single point]",–
CC1=C(C(=O)Nc2ccccc2)C(c2ccc(C)o2)n2c(s/c(=C/c3ccccc3)c2=O)=N1 (stereo not given),"inconclusive: 35.5 µM [inhibitor, single point]",–
Cc1cccc(NC(=S)NC(=O)c2ccc(-c3ccccc3)cc2)n1,"inconclusive: 6.31 µM [activator, partial curve]",–
NS(=O)(=O)c1ccc(NCc2ccccc2OCc2ccccc2F)cc1,"inconclusive: 13 µM [inhibitor, partial curve, poor fit]",–
O=C1CC(c2ccc(O)cc2)Oc2cc(O)cc(O)c21 (stereo not given),inactive,–
O=C(C=Cc1ccccc1)N1CCCCC1,"inconclusive: 1.78 µM [activator, full curve, poor fit]",–
Cc1ccc(S(=O)(=O)NCC(Nc2cccc(Cl)c2)c2ccccc2)cc1 (stereo not given),"inconclusive: 20 µM [inhibitor, single point]",–
COC(=O)C(CC(=O)CNC(=O)c1ccccc1)NC(=O)c1ccccc1 (stereo not given),–,inactive: 5.41% [at 46.1 µM]
CCOC(=O)c1c(C)[nH]c(C=Nc2ccccc2)c1O,–,inactive: 0%
COc1ccc(OC)c(NC(=O)COc2coc(CN3CCCc4ccccc43)cc2=O)c1,"inconclusive: 11.2 µM [inhibitor, partial curve, poor fit]",–
Cc1ccc(CN(C)CC(=O)Nc2ccc3c(c2)CCC3)cc1,"inconclusive: 35.5 µM [inhibitor, single point]",–
N=c1c(C(=O)NC2CCCC2)cc2c(=O)n3ccccc3nc2n1C1CCCCC1,"inconclusive: 35.5 µM [inhibitor, single point]",–
COc1ccc(C(C#N)N2N=C(c3ccccc3)CC2c2ccccc2)cc1OC (stereo not given),"inconclusive: 7.31 µM [activator, full curve, poor fit]",–
O=C(c1cc(-c2ccccc2)on1)N1CCCC1,"inconclusive: 25.9 µM [inhibitor, single point]",–
CCOc1ccccc1C1C(C(=O)Nc2ccccc2)=C(C)Nc2c(C(=O)Nc3ccc(F)cc3)cnn21 (stereo not given),"inconclusive: 10 µM [inhibitor, partial curve, poor fit]",–
O=C(Nc1ccc(F)cc1)c1cccnc1Oc1ccccc1,–,inactive: 7.72%
FC(F)(F)c1nc(-c2cccnc2)ncc1-c1nnnn1-c1ccccc1,–,inactive: 0.79%
Cc1cc(C(=O)N/N=C/c2ccccc2)c(C)o1,"inconclusive: 12.6 µM [activator, partial curve, poor fit]",–
CN(C)CC1CCCCC1C1(O)c2ccccc2CSc2sccc21 (stereo not given),"inconclusive: 35.5 µM [inhibitor, single point]",–
CC(C)c1ccc(Nc2ccc(C(=O)O)cc2[N+](=O)[O-])cc1,–,inactive: -0.897%
Cc1ccccc1/C=N/N1CCN(c2ccccc2)CC1,"inconclusive: 25.1 µM [activator, single point]",–
CCCc1cc2c(cc1NC(=O)c1ccc(C(C)(C)C)cc1)OCO2,"inconclusive: 0.501 µM [inhibitor, full curve, poor fit]",–

# Part of the list above, with bars between the fields:
Compound | Potency | activity change, negative = inhibition
Cc1ccccc1CSCC(=O)NC(=O)NCc1ccco1 | – | inactive: -7.06%
O=C(/C=C\c1ccc(O)cc1)c1ccc(O)cc1O | active: 10 µM | –
Oc1cccc(/C=C/c2ccc3cccc(O)c3n2)c1 | inconclusive: 35.5 µM [inhibitor, single point] | –
COc1ccc(-c2cc3nccc(-c4cc(Cl)c(C)cc4O)n3n2)cc1 | – | inactive: -11.9% [at 46.1 µM]
COC(=O)C(CC(=O)CNC(=O)c1ccccc1)NC(=O)c1ccccc1 (stereo not given) | – | inactive: 5.41% [at 46.1 µM]
N=c1c(C(=O)NC2CCCC2)cc2c(=O)n3ccccc3nc2n1C1CCCCC1 | inconclusive: 35.5 µM [inhibitor, single point] | –

# More results

Compound,Potency,"activity change, negative = inhibition"
COCCN1C=C(C(=O)OC)C(c2cc3c(cc2Br)OCO3)C(C(=O)OC)=C1,–,inactive: 2.84%
CC1CN(C(=O)c2cc(F)c(F)cc2Cl)CC(C)O1 (stereo not given),–,inactive: -1.27%
Cc1cc(C)nc(NC2=NCCN2C(=S)Nc2ccc(C)c(C)c2)n1,–,inactive: -10.7% [at 14.2 µM]
CC(=O)c1ccc(Nc2nc(C)nc3c2oc2ccccc23)cc1,–,inactive: -9.56%
CC(=C/c1ccco1)/C=N/NC(=O)CSc1nnc(SCc2ccc(C)cc2)s1,"inconclusive: 32.6 µM [inhibitor, single point]",–
COc1ccc(C(=O)N/N=C/c2ccc(OC)c(COc3ccc(F)cc3F)c2)cc1,"inconclusive: 22.4 µM [inhibitor, single point]",–
CC(=O)c1cccc(NC(=O)CN(c2ccc(C)cc2)S(=O)(=O)c2cccc3nonc23)c1,"inconclusive: 8.91 µM [inhibitor, partial curve, poor fit]",–
Cn1c(=O)c2c(nc(C(O)c3ccccc3)n2C)n(C)c1=O (stereo not given),"inconclusive: 2.51 µM [activator, full curve, poor fit]",–
CC(OC(=O)C1CCN(S(=O)(=O)c2ccc(F)cc2)CC1)C(=O)NC1CCCCC1C (stereo not given),–,inactive: 9.21%
CCOC(=O)c1c(-c2ccccc2)oc2ccc(OCC(O)CN(C)C)cc12 (stereo not given),"inconclusive: 20.6 µM [inhibitor, single point]",–
COc1ccc(-c2ccccc2NC(=O)C2CCCN(Cc3ccc(C)o3)C2)cc1 (stereo not given),"inconclusive: 22.4 µM [inhibitor, single point]",–
Cc1ccccc1-c1nc2ccccc2c(=O)n1/N=C/c1ccccc1[N+](=O)[O-],"inconclusive: 14.1 µM [inhibitor, single point]",–
CC(C)(C)n1nnnc1C(c1ccncc1)N(Cc1ccccc1)Cc1ccco1 (stereo not given),"inconclusive: 35.5 µM [inhibitor, single point]",–
CCOc1ccc(S(=O)(=O)N(CC(=O)Nc2cccnc2)c2ccccc2)cc1,"inconclusive: 35.5 µM [inhibitor, single point]",–
CC(C)=CC(=O)OCC(=O)NC1CCCc2ccccc21 (stereo not given),–,inactive: 9.79% [at 46.1 µM]
Cc1c(C(=O)N(C)Cc2nc3ccccc3c(=O)[nH]2)oc2ccccc12,"inconclusive: 8.91 µM [inhibitor, partial curve, poor fit]",–
CC1=NN(c2ccccc2C)C(=O)C1,–,inactive: 11% [at 46.1 µM]
Cc1ccc(C(C)(C)NC(=O)C2CCC(=O)N(C3CCCCCC3)C2)cc1 (stereo not given),–,inactive: 10.5% [at 46.1 µM]
CCOC(=O)c1c(C)[nH]c(C(=O)COC(=O)CNC(=O)c2ccc(Cl)cc2)c1C,"inconclusive: 3.98 µM [inhibitor, single point]",–
CC1=C(C(N)=O)C(c2ccc(C(C)C)cc2)n2nc(SCc3ccccc3)nc2N1 (stereo not given),–,inactive: 26.2% [at 46.1 µM]
Clc1cccc2c1Sc1ccccc1CC2N1CCNCC1 (stereo not given),"inconclusive: 18.4 µM [inhibitor, single point]",–
COc1ccc(CCNC(=O)c2ccc3c(c2)N(Cc2ccc(C)cc2)CCS3)cc1OC,"inconclusive: 10 µM [inhibitor, partial curve, poor fit]",–
